From paper PMC3961341
Results are given in words; binding and its absence hold for the method and conditions named. Binding seen in cells or lysates may run through a third protein. Some binding calls cover weakened binding; strength is not graded here. For some of these results: Where a sequence is shown, tags or fusion partners need not be part of it. Blank lines part the entries; values can stand above or below the molecule they belong to.

Key:
Assay in all cases: co-IP
[1] = biological target: T1, Flag-tagged RIG-IΔCTD (RIG-I 1-801) (human) (UniProt O95786)
T1 sequence: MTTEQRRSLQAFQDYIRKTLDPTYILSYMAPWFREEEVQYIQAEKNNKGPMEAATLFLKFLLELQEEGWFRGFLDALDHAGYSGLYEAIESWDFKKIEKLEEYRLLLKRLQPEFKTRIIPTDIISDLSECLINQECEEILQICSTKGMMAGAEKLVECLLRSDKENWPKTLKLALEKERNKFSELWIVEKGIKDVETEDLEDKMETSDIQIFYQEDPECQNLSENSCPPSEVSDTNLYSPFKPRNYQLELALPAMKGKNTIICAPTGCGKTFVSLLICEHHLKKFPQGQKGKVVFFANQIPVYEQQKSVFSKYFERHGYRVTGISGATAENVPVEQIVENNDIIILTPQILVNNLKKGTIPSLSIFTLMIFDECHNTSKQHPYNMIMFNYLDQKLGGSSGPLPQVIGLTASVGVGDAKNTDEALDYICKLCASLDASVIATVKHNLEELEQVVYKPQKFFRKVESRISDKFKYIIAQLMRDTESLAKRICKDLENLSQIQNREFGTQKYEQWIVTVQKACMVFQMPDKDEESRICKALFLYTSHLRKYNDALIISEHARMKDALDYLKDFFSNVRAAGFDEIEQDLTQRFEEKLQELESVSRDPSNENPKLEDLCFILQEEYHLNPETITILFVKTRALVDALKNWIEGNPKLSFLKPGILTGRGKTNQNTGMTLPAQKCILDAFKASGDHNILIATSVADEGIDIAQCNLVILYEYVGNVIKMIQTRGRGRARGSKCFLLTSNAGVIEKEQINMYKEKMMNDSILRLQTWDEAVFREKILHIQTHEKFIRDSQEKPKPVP

[2] = biological target: T2, DExD/H-box helicase 36 (DHX36), endogenous human (human (endogenous in HEK293T and HeLa)) (UniProt Q9H2U1)
T2 sequence: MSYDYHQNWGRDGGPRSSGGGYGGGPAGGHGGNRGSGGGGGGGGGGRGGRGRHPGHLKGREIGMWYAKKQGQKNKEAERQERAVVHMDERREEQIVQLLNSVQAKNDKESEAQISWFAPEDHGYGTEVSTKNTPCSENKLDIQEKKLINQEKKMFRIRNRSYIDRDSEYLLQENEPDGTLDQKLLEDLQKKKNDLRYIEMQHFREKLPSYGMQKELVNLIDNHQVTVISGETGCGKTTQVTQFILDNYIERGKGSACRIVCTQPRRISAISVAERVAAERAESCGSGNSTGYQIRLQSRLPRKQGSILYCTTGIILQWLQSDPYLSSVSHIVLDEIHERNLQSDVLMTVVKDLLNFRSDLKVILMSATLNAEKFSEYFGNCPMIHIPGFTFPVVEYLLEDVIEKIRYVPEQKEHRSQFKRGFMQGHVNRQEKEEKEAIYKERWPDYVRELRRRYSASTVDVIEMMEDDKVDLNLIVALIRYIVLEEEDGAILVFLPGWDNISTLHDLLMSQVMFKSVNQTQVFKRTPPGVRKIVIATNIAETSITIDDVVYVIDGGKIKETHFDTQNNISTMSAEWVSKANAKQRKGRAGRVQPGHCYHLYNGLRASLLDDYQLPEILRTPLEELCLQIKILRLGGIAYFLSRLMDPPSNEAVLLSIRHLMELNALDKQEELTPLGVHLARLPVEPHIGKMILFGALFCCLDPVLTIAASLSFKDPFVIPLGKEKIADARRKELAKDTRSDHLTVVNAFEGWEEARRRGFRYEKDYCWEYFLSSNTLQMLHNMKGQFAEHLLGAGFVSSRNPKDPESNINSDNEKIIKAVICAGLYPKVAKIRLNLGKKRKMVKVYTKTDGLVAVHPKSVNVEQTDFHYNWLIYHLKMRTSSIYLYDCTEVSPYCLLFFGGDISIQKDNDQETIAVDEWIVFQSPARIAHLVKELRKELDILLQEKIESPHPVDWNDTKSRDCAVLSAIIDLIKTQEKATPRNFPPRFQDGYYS

[3] = biological target: GFP-tagged RasGAP SH3-domain-binding protein 1 (G3BP1) (human), Q13283; settings: remark: other sources report otherwise
[4] = biological target: T3, FLAG-RIG-I stably expressed in rig-i null MEFs (RIG-I null/FLAG-RIG-I) (human) (UniProt O95786)
T3 sequence: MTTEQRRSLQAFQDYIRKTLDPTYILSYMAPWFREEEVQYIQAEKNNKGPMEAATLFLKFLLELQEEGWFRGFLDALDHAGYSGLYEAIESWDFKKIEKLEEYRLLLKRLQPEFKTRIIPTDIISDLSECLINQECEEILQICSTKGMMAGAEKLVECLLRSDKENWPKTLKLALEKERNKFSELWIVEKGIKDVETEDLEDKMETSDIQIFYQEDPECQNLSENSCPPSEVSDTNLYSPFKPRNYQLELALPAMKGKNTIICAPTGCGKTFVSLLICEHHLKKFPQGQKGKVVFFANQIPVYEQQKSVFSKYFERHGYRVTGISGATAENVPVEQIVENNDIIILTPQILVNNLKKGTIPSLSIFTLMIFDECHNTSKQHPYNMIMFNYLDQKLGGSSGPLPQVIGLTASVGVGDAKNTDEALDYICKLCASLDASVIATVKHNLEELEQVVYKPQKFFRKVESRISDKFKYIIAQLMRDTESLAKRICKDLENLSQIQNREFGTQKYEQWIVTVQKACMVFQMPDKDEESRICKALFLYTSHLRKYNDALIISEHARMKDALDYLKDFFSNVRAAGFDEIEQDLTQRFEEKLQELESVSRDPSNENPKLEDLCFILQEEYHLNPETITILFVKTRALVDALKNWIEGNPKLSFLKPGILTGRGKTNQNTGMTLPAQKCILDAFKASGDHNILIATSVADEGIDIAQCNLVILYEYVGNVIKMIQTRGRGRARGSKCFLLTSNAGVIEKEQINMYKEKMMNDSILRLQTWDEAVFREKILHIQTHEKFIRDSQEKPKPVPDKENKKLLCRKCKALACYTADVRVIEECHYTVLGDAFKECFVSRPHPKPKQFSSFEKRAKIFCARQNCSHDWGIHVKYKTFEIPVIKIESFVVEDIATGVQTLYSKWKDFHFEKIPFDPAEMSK

- binding [1]: binds
Molecule: double-stranded RNA (dsRNA)-dependent protein kinase (PKR), endogenous human (from UniProt P19525-1 1-551)

- binding [2]: binds
B1: RIG-I, endogenous human (protein, UniProt O95786-1 1-925)
chain: MTTEQRRSLQAFQDYIRKTLDPTYILSYMAPWFREEEVQYIQAEKNNKGPMEAATLFLKFLLELQEEGWFRGFLDALDHAGYSGLYEAIESWDFKKIEKLEEYRLLLKRLQPEFKTRIIPTDIISDLSECLINQECEEILQICSTKGMMAGAEKLVECLLRSDKENWPKTLKLALEKERNKFSELWIVEKGIKDVETEDLEDKMETSDIQIFYQEDPECQNLSENSCPPSEVSDTNLYSPFKPRNYQLELALPAMKGKNTIICAPTGCGKTFVSLLICEHHLKKFPQGQKGKVVFFANQIPVYEQQKSVFSKYFERHGYRVTGISGATAENVPVEQIVENNDIIILTPQILVNNLKKGTIPSLSIFTLMIFDECHNTSKQHPYNMIMFNYLDQKLGGSSGPLPQVIGLTASVGVGDAKNTDEALDYICKLCASLDASVIATVKHNLEELEQVVYKPQKFFRKVESRISDKFKYIIAQLMRDTESLAKRICKDLENLSQIQNREFGTQKYEQWIVTVQKACMVFQMPDKDEESRICKALFLYTSHLRKYNDALIISEHARMKDALDYLKDFFSNVRAAGFDEIEQDLTQRFEEKLQELESVSRDPSNENPKLEDLCFILQEEYHLNPETITILFVKTRALVDALKNWIEGNPKLSFLKPGILTGRGKTNQNTGMTLPAQKCILDAFKASGDHNILIATSVADEGIDIAQCNLVILYEYVGNVIKMIQTRGRGRARGSKCFLLTSNAGVIEKEQINMYKEKMMNDSILRLQTWDEAVFREKILHIQTHEKFIRDSQEKPKPVPDKENKKLLCRKCKALACYTADVRVIEECHYTVLGDAFKECFVSRPHPKPKQFSSFEKRAKIFCARQNCSHDWGIHVKYKTFEIPVIKIESFVVEDIATGVQTLYSKWKDFHFEKIPFDPAEMSK

- binding [3]: binds
B2: RIG-I, endogenous human, O95786-1 1-925 (protein)
chain: MTTEQRRSLQAFQDYIRKTLDPTYILSYMAPWFREEEVQYIQAEKNNKGPMEAATLFLKFLLELQEEGWFRGFLDALDHAGYSGLYEAIESWDFKKIEKLEEYRLLLKRLQPEFKTRIIPTDIISDLSECLINQECEEILQICSTKGMMAGAEKLVECLLRSDKENWPKTLKLALEKERNKFSELWIVEKGIKDVETEDLEDKMETSDIQIFYQEDPECQNLSENSCPPSEVSDTNLYSPFKPRNYQLELALPAMKGKNTIICAPTGCGKTFVSLLICEHHLKKFPQGQKGKVVFFANQIPVYEQQKSVFSKYFERHGYRVTGISGATAENVPVEQIVENNDIIILTPQILVNNLKKGTIPSLSIFTLMIFDECHNTSKQHPYNMIMFNYLDQKLGGSSGPLPQVIGLTASVGVGDAKNTDEALDYICKLCASLDASVIATVKHNLEELEQVVYKPQKFFRKVESRISDKFKYIIAQLMRDTESLAKRICKDLENLSQIQNREFGTQKYEQWIVTVQKACMVFQMPDKDEESRICKALFLYTSHLRKYNDALIISEHARMKDALDYLKDFFSNVRAAGFDEIEQDLTQRFEEKLQELESVSRDPSNENPKLEDLCFILQEEYHLNPETITILFVKTRALVDALKNWIEGNPKLSFLKPGILTGRGKTNQNTGMTLPAQKCILDAFKASGDHNILIATSVADEGIDIAQCNLVILYEYVGNVIKMIQTRGRGRARGSKCFLLTSNAGVIEKEQINMYKEKMMNDSILRLQTWDEAVFREKILHIQTHEKFIRDSQEKPKPVPDKENKKLLCRKCKALACYTADVRVIEECHYTVLGDAFKECFVSRPHPKPKQFSSFEKRAKIFCARQNCSHDWGIHVKYKTFEIPVIKIESFVVEDIATGVQTLYSKWKDFHFEKIPFDPAEMSK

- binding [4]: binds
B3: mouse DHX36, endogenous (protein, UniProt Q8VHK9 1-1001)
chain: MSYDYHQSWSRDGGPRGSGQGSSGGGGGGSRGSGGGGGGRGGRGRHPAHLKGREIGLWYAKKQTQKNKEAERQERAVVHMDERREEQIVQLLNSVQAKTDKDSEAQISWFAPEDHGYGTEVSSEKKINSEKKLDNQEKKLLNQEKKTFRITDKSYIDRDSEYLLQENEPNLSLDQHLLEDLQRKKTDPRYIEMQRFRKKLPSYGMQKELVNLINNHQVTVISGETGCGKTTQVTQFILDNYIERGKGSACRIVCTQPRRISAISVAERVATERAESCGNGNSTGYQIRLQSRLPRKQGSILYCTTGIILQWLQSDSRLSSVSHIVLDEIHERNLQSDVLMTVIKDLLHFRSDLKVILMSATLNAEKFSEYFGNCPMIHIPGFTFPVVEYLLEDIIEKIRYVPDQKEHRSQFKRGFMQGHVNRQEKEEKEAIYKERWPAYIKELRTRYSASTVDVLQMMDDDKVDLNLIAALIRYIVLEEEDGAILVFLPGWDNISTLHDLLMSQVMFKSDKFLIIPLHSLMPTVNQTQVFKKTPPGVRKIVIATNIAETSITIDDVVYVIDGGKIKETHFDTQNNISTMSAEWVSKANAKQRKGRAGRVQPGHCYHLYNGLRASLLDDYQLPEILRTPLEELCLQIKILRLGGIAYFLSRLMDPPSNEAVVLSIKHLMELSALDKQEELTPLGVHLARLPVEPHIGKMILFGALFCCLDPVLTIAASLSFKDPFVIPLGKEKIADARRKELAKETRSDHLTVVNAFEGWEEAKRRGFRYEKDYCWEYFLSSNTLQMLHNMKGQFAEHLLGAGFVSSRSPKDPKANINSDNEKIIKAVICAGLYPKVAKIRLNLGKKRKMVKVHTKSDGLVSIHPKSVNVEQTDFHYNWLIYHLKMRTSSIYLYDCTEVSPYCLLFFGGDISIQKDKDQEIIAVDEWIVFQSPERIAHLVKGLRKELDSLLQEKIESPHPVDWDDTKSRDCAVLSAILDLIKTQEKATPRNLPPRSQDGYYS
